No constants are given. Whether binding was seen depends on the method and setting. In cells and extracts the contact can be indirect. For some assays here: Binding can be weak; no strength is given. Tags and fused reporters may be left off the sequences shown.
Experiments:
[1] = biological target: GST-ATPase domain of GRP78/BiP; assay: pull-down; 10 μg of GST-fused GRP78 domain incubated with 500 μg of lysate of HEK-293 cells transfected with HA-Bag5; western blot with anti-HA; only the target purified
[2] = biological target: GST-substrate binding domain of GRP78/BiP; assay: as above

B1: HA-Bag5 (protein, UniProt Q9UL15 1-447)
chain: MDMGNQHPSISRLQEIQKEVKSVEQQVIGFSGLSDDKNYKKLERILTKQLFEIDSVDTEGKGDIQQARKRAAQETERLLKELEQNANHPHRIEIQNIFEEAQSLVREKIVPFYNGGNCVTDEFEEGIQDIILRLTHVKTGGKISLRKARYHTLTKICAVQEIIEDCMKKQPSLPLSEDAHPSVAKINFVMCEVNKARGVLIALLMGVNNNETCRHLSCVLSGLIADLDALDVCGRTEIRNYRREVVEDINKLLKYLDLEEEADTTKAFDLRQNHSILKIEKVLKRMREIKNELLQAQNPSELYLSSKTELQGLIGQLDEVSLEKNPCIREARRRAVIEVQTLITYIDLKEALEKRKLFACEEHPSHKAVWNVLGNLSEIQGEVLSFDGNRTDKNYIRLEELLTKQLLALDAVDPQGEEKCKAARKQAVRLAQNILSYLDLKSDEWEY
binding [1]: binds | binding [2]: no binding

From article PMC3598994
